This is an account of results in US20200147070A1, “INDUCING PHOSPHOLIPIDOSIS FOR ENHANCING THERAPEUTIC EFFICACY” (Nextcea Inc., priority 2017, published 2020).

The conditions of this data set: amiodarone 150 mg/kg/day co-administered with fluoxetine 10 mg/kg/day, 2 weeks, vs amiodarone alone.

In the case of `CCCCc1oc2ccccc2c1C(=O)c1cc(I)c(OCCN(CC)CC)c(I)c1` [amiodarone], the “amiodarone concentration in the heart” value is given as “increased”.
